PubChem BioAssay AID1259254 – NCATS, 2017
The deposit covers about 59,000 reagents; shown is an unselected part. Over the whole deposit, about 1,550 (2.6%) are marked active. 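G2 share is only a proxy for re-replication; each gene was hit by three separate siRNAs, and active genes were retested.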 Not all columns of the deposit are shown. The record does not give: the amount of reagent.

Screen: 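Gene knock-downs that lead to re-replication, shown by excess G2 DNA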 (primary screen)
System: human HCT116 colorectal cancer cells
Knock-down reagent: single siRNA against human genes
Time to read-out: 3 days
Measured: 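Nuclei stained with Hoechst and imaged; cell-cycle phase assigned by DNA content; G2 share scaled per plate, non-targeting siRNA 0%, GMNN siRNA 100%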
Scale: G2 robust z-score: higher = more G2 cells, more excess DNA replication
Call rule: 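An siRNA counts as active if its G2 robust z-score lies at least 5 MADs above the screen median; here such calls match roughly 38% of GMNN control or more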

TMEM87B [SID160752915] | G2 robust z-score = -0.113; outcome = inactive
TMEM87B [SID160752916] | G2 robust z-score = -0.713; outcome = inactive
TMEM87B [SID160752917] | G2 robust z-score = 0.873; outcome = inactive
GPATCH3 [SID160747254] | G2 robust z-score = 1.18; outcome = inactive
GPATCH3 [SID160747255] | G2 robust z-score = 1.47; outcome = inactive
GPATCH3 [SID160747256] | G2 robust z-score = 1.95; outcome = inactive
RHOA [SID160776002] | G2 robust z-score = 2.45; outcome = inactive
RHOA [SID160776012] | G2 robust z-score = 0.735; outcome = inactive
RHOA [SID160776023] | G2 robust z-score = -0.126; outcome = inactive
PQBP1 [SID160725168] | G2 robust z-score = -0.424; outcome = inactive
PQBP1 [SID160725176] | G2 robust z-score = 0.555; outcome = inactive
PQBP1 [SID160725183] | G2 robust z-score = -0.196; outcome = inactive
MYB [SID160777605] | G2 robust z-score = 2.96; outcome = inactive
MYB [SID160777606] | G2 robust z-score = 0.365; outcome = inactive
MYB [SID160777608] | G2 robust z-score = -0.595; outcome = inactive
TPP1 [SID160730565] | G2 robust z-score = 0.0299; outcome = inactive
TPP1 [SID160744582] | G2 robust z-score = -0.503; outcome = inactive
TPP1 [SID160744593] | G2 robust z-score = -1.15; outcome = inactive

Part of the list above, set out differently.
| target gene | PubChem SID | G2 robust z-score | outcome |
| --- | --- | --- | --- |
| PQBP1 | SID160725168 | -0.424 | inactive |
| PQBP1 | SID160725176 | 0.555 | inactive |
